From patent US20230240988A1, “FLUID GEL COMPOSITIONS” (The University of Birmingham, priority 2020, published 2023)
For at least one compound, name, drawing or mass did not settle the structure.

Assay: Release assay of active agents from PEG-DA fluid gel (trans-well, UV/Vis)
Type: physicochemical
Settings: 3% v/v PEG-DA fluid gel (500 rpm), PBS 37° C., 5 hrs
Method: • Active amounts: […] • Standard concentrations of active in PBS were prepared. • Standards were pipetted into a quartz cuvette (1 mm pathlength). • […] spectroscopy was used to measure absorbance between 200 and 700 nm wavelength. • Curves were plotted and used to determine standard curves which were used to determine concentrations. • 0.5 ml PBS was added to the well of a 24 well plate. • The PBS was incubated at 37° C. to equilibrate. 0.1 ml of the fluid gel containing active was placed in a trans-well insert. • The trans-well insert was placed into a well containing PBS. • After a given time period the trans-well insert was removed and placed in a fresh well of PBS. • The release media was then removed and analysed using […] spectroscopy. Concentrations were derived from the standard curves and cumulative release plotted as a function of time.

C[C@@H]1C[C@H]2[C@@H]3CCC4=CC(=O)C=C[C@]4(C)[C@@]3(F)[C@@H](O)C[C@]2(C)[C@@]1(O)C(=O)CO [dexamethasone]
release of active agent from fluid gel: able to release
